Assay results reported in publication PMC12029333.
Results are given in words; binding and its absence hold for the method and conditions named. Binding seen in cells or lysates may run through a third protein. Here binding means that the protein was enriched with, or labelled near, the bait; the list need not be complete. Sequences can lack the tags named with a protein.

biological target: T1, GST-PrkC (Serine/threonine-protein kinase PrkC) (Bacillus subtilis str. 168) (UniProt O34507); assay: affinity purification with mass spectrometry; GST-PrkC on glutathione resin incubated with B. subtilis spore lysate at 4 °C; resin washed; bound proteins eluted with 20 mM reduced glutathione; eluate digested with trypsin and analysed by LC-MS/MS; hits filtered at 1% FDR, >=2 unique peptides; only the target purified
T1 sequence: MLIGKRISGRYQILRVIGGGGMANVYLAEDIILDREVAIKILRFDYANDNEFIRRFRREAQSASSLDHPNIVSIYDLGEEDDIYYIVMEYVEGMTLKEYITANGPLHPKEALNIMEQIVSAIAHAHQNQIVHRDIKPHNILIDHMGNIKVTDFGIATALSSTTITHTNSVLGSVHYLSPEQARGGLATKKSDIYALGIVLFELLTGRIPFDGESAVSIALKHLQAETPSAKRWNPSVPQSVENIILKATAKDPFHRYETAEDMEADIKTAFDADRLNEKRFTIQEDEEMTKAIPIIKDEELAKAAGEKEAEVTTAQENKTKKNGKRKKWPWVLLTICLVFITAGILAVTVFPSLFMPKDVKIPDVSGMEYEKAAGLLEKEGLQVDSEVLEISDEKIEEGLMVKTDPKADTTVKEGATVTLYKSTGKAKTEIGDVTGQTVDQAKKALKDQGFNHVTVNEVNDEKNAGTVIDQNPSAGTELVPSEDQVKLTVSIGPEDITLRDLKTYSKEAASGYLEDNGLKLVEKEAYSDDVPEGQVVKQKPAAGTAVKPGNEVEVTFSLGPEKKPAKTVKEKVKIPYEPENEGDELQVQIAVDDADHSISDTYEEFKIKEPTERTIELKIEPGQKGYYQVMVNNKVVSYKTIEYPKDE

| binding | Substance |
| --- | --- |
| binds | Elongation factor Tu (from UniProt P33166 1-396) |
| binds | Glucose 1-dehydrogenase (from UniProt P12310 1-261) |
| binds | Heme-based aerotactic transducer HemAT (from UniProt O07621 1-432) |
| binds | L-lactate dehydrogenase (from UniProt P13714 1-320) |
| binds | Plipastatin synthase subunit B (from UniProt P39846 1-2560) |
| binds | Polyketide synthase PksM (from UniProt P40872 1-4262) |
| binds | Uncharacterized protein YqbO (from UniProt P45931 1-1585) |

The remaining lines, values behind:

| Substance | binding |
| --- | --- |
| ATP synthase subunit alpha (from UniProt P37808 1-502) | binds |
| Chaperone protein DnaK (from UniProt P17820 1-611) | binds |
| FMN-dependent NADPH-azoreductase (from UniProt O07529 1-174) | binds |
| Polyketide synthase PksJ (from UniProt P40806 1-5043) | binds |
| Polyketide synthase PksL (from UniProt Q05470 1-4538) | binds |
| Surfactin synthase subunit 1 (from UniProt P27206 1-3587) | binds |
